Record: PubChem BioAssay AID1671195 (Yale University, 2021)

- Test: 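Regulators of LDL receptor activity judged by labelled LDL uptake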 (primary screen)
- Cells: human Huh7 hepatoma cells
- Knock-down reagent: siRNA pool against human genes, 18 nM
- Duration: about 2 to 2.5 days of knockdown, then 8 h LDL uptake
- Challenge: DiI-labelled LDL at 30 µg/ml for 8 h, in lipoprotein-deficient serum medium
- Measured: 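Per-cell DiI-LDL intensity by automated imaging; well means scaled to the plate median and given as a robust z-score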
- Reading the numbers: robust z-score: higher = more LDL uptake after knockdown
- Hit rule: 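Active when two or more replicates show a robust z-score above 2 or below -2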
This is a random part of about 22,000 reagents tested. About 1,510 of them (6.9%) count as active. 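Active includes knockdowns raising or lowering LDL uptake; positive z-scores mean more uptake, negative mean less.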 A number with no mark means an inactive call. Reagent sequences are not shown.

Against HDAC4 (histone deacetylase 4), the entry reads robust z-score, replicate 1 = 0.784; robust z-score, replicate 2 = 0.269; robust z-score, replicate 3 = 2.58. After knock-down of LACC1 (laccase domain multifunctional purine nucleosidase 1), the screen gave robust z-score, replicate 1 = -0.205; robust z-score, replicate 2 = -0.671; robust z-score, replicate 3 = 0.692. With knock-down of IMPACT (impact RWD domain protein), the screen gave robust z-score, replicate 1 = 2.06 (active); robust z-score, replicate 2 = 1.36; robust z-score, replicate 3 = 2.55. NRK (Nik related kinase) scored robust z-score, replicate 1 = 2.58 (active); robust z-score, replicate 2 = 2.59; robust z-score, replicate 3 = 1.78. Against NXF2 (nuclear RNA export factor 2), the entry reads robust z-score, replicate 1 = -0.861; robust z-score, replicate 2 = -1.23; robust z-score, replicate 3 = -1.4. After knock-down of ADCY10 (adenylate cyclase 10), the screen gave robust z-score, replicate 1 = -1.17; robust z-score, replicate 2 = -0.63; robust z-score, replicate 3 = -1.54.

For OBP2A (odorant binding protein 2A), the values are robust z-score, replicate 1 = 2.55 (active); robust z-score, replicate 2 = 2.13; robust z-score, replicate 3 = 2.72. Silencing of FOXN3 (forkhead box N3) gave: robust z-score, replicate 1 = 1.04; robust z-score, replicate 2 = 1.09; robust z-score, replicate 3 = 2.33. Knock-down of HNRNPD (heterogeneous nuclear ribonucleoprotein D) gave: robust z-score, replicate 1 = 0.49; robust z-score, replicate 2 = 0.039; robust z-score, replicate 3 = 0.0677. With knock-down of AMN1 (antagonist of mitotic exit network 1 homolog) the results were robust z-score, replicate 1 = 1.61; robust z-score, replicate 2 = 1.23; robust z-score, replicate 3 = 2.51. LYL1 (LYL1 basic helix-loop-helix family member) scored robust z-score, replicate 1 = -1.48; robust z-score, replicate 2 = -1.7; robust z-score, replicate 3 = -1.9. With knock-down of LOC440112 (retired record), the screen gave robust z-score, replicate 1 = -1.06; robust z-score, replicate 2 = -0.629; robust z-score, replicate 3 = -0.509.

With knock-down of AKAP8 (A-kinase anchoring protein 8), the screen gave robust z-score, replicate 1 = 1.24; robust z-score, replicate 2 = 1.17; robust z-score, replicate 3 = 0.59. Knock-down of GOLGA2P10 (GOLGA2 pseudogene 10) came out at: robust z-score, replicate 1 = -2.03 (active); robust z-score, replicate 2 = -2.17; robust z-score, replicate 3 = -1.88. For PILRB (paired immunoglobin like type 2 receptor beta), the entry reads robust z-score, replicate 1 = -3.48; robust z-score, replicate 2 = -1.45; robust z-score, replicate 3 = -0.504. Depletion of PLEKHG6 (pleckstrin homology and RhoGEF domain containing G6) came out at: robust z-score, replicate 1 = 0.0446; robust z-score, replicate 2 = -1.31; robust z-score, replicate 3 = 1.15. With knock-down of ARHGEF25 (Rho guanine nucleotide exchange factor 25) the results were robust z-score, replicate 1 = -0.271; robust z-score, replicate 2 = 1.54; robust z-score, replicate 3 = 0.674. ST20 (suppressor of tumorigenicity 20) scored robust z-score, replicate 1 = -1.32; robust z-score, replicate 2 = -0.952; robust z-score, replicate 3 = -0.933.

MTG1 (mitochondrial ribosome associated GTPase 1) scored robust z-score, replicate 1 = 1.66; robust z-score, replicate 2 = 0.588; robust z-score, replicate 3 = 0.614. Depletion of GDNF (glial cell derived neurotrophic factor) came out at: robust z-score, replicate 1 = 0.125; robust z-score, replicate 2 = -0.0212; robust z-score, replicate 3 = 0.0148. After knock-down of ZNF800 (zinc finger protein 800), the screen gave robust z-score, replicate 1 = -0.534; robust z-score, replicate 2 = -0.133; robust z-score, replicate 3 = -0.317. TMEM244 (transmembrane protein 244) showed robust z-score, replicate 1 = -0.172; robust z-score, replicate 2 = -0.354; robust z-score, replicate 3 = -0.381. RNF216 (ring finger protein 216) showed robust z-score, replicate 1 = -0.456; robust z-score, replicate 2 = -0.216; robust z-score, replicate 3 = 0.143. Depletion of SLC25A16 resulted in: robust z-score, replicate 1 = 1.18; robust z-score, replicate 2 = 0.762; robust z-score, replicate 3 = 0.676.

Targets above whose gene name begins with L or l:
LACC1 (laccase domain multifunctional purine nucleosidase 1) | robust z-score, replicate 1: -0.205; robust z-score, replicate 2: -0.671; robust z-score, replicate 3: 0.692
LYL1 (LYL1 basic helix-loop-helix family member) | robust z-score, replicate 1: -1.48; robust z-score, replicate 2: -1.7; robust z-score, replicate 3: -1.9
LOC440112 (retired record) | robust z-score, replicate 1: -1.06; robust z-score, replicate 2: -0.629; robust z-score, replicate 3: -0.509
